These are yes or no findings as the source states them, for the method shown. In cells and extracts the contact can be indirect. Binding can be weak; no strength is given.
Tests used:
Halo-CXCR4 [1] = target: Halo-CXCR4 (UniProt P61073); test: FRET or BRET; TR-FRET between labelled nanobodies on cells co-expressing CXCR4 and ACKR3 receptors, 96-well plate format (Fig. S12)
Halo-CXCR4 [2] = target: Halo-CXCR4 (UniProt P61073); test: FRET or BRET; TR-FRET microscopy between 10 nM Lumi4-Tb- and d2-labelled nanobodies bound to receptors on transfected HEK293T cells, 37 °C

Chains of the proteins cited; added tags and fusions are not shown. Lines headed by an entry give the natural chain unless they say otherwise; changes in a name come on top.
UniProt P61073: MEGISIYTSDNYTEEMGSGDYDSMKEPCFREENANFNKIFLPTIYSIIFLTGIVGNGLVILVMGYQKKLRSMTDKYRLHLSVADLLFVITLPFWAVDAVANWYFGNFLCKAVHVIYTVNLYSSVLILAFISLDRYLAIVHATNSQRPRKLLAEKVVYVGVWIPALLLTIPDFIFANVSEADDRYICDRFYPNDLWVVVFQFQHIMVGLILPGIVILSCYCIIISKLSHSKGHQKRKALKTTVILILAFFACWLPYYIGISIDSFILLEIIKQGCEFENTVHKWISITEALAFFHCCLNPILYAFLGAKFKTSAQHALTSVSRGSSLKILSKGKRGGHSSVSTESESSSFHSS
UniProt P25106: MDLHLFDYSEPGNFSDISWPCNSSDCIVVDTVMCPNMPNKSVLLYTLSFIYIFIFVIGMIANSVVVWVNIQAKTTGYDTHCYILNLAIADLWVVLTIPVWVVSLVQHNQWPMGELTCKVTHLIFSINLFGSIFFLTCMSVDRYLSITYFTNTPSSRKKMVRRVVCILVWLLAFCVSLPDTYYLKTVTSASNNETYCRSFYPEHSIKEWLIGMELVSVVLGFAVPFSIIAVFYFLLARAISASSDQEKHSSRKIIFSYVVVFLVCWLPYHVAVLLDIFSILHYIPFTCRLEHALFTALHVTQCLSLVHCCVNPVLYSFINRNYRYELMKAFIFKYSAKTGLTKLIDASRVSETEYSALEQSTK

**Q.** Which results are given for “SNAP-ACKR3-ΔCterm (from UniProt P25106) (receptor)”?
**A.** binding (Halo-CXCR4 [1]): binds; binding (Halo-CXCR4 [2]): binds
